Measured values taken from PubChem BioAssay AID1347423 (Functional Genomics Laboratory (NCATS/FGL), 2020).
Among all 52,000 sequences or so, about 210 (0.4%) were called active.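 The calls were made as follows: active = gene whose silencing raises cell survival under the drug, median off-target-corrected z-score across its silencing RNAs 2 or more; inactive = the rest.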 This is one part of the list.

Assay: Resistance to Poly (ADP-Ribose) Polymerase inhibitor: Gene Identification via Genome-wide siRNA Screen
Conditions: mouse BRCA2 R2336H ES cells, olaparib, CellTiter-Glo viability; active compounds read high
Summary of the method: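 Genome-wide siRNA screen (3 siRNAs/gene, 20 nM) in mouse ES cells carrying hypomorphic BRCA2 R2336H; olaparib 500 nM added 48 h post-transfection, CellTiter-Glo viability 72 h later. Normalized to plate-median negative control; MAD z-scores, gene median, seed-adjusted.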

Sequence	z-score
GGAGUUUAUGUGAGUGGCATT against Olfr170	inactive: -0.945
GGGCAUCUCUCAGCAAUGATT against Asb10	inactive: -1.42
GGAAGCCCUUUCCGUCCUUTT against Tacc2	inactive: 0.165
GCUUUAUCCACAGGUGCCATT against Olfr1350	inactive: 0.426
GGAGCUGAACAUGUUAACUTT against 2810403P18Rik	inactive: 0.406
GGCAGUUGAUUCCUUUAAATT against B930060C03	inactive: 0.465
CGUGGUUCAUUUACAGGUUTT against Rnf2	inactive: -1.84
GGUGGAGUCUUCUUCCUCATT against Ube2d1	inactive: -0.734
GGACAACAUCAUUAGCCUCTT against Egr3	inactive: 1.9
GGCUGGAAUACAGUAAUUCTT against Opn1sw	inactive: -1.24
GCAUUCAUGUGCUCUGCCCTT against Ifitm6	inactive: -0.0399
GGCUGACCUACAUUAGCAATT against Tas1r2	inactive: 0.33
GGUCACAGAUCGGAAUAUGTT against 4931428F04Rik	inactive: -0.0759
GCAGCAGUGAAAUAGCUUCTT against Eya1	inactive: 0.505
GCACUAGUUAGAGAUCUUATT against Gm1574	inactive: -0.153
GGAUCUUUUCCAACAAAUATT against 1700129I15Rik	inactive: 0.321
CCCAAGAUGGUAGCAGACATT against Tbxas1	inactive: -1.34
GGAAGAAAUGCAGUUCUAATT against 8030451K01Rik	inactive: -1.24
GGAAAUAUAUCUCUAUCUCTT against Xylt2	inactive: 1.12
GGUGCAUAAAGAGAGCGAUTT against MGC58970	inactive: -0.731
CCUAAGUUCCUGAAAAUAUTT against Epha5	inactive: -0.915
CGAAUUAUCAAUAAGCACATT against Mettl3	inactive: 0.341
GGUUCUGGACAGAUGCUGUTT against Nags	inactive: 0.411

Reprinted at random: two entries already listed
Sequence	z-score
GGCUGACCUACAUUAGCAATT against Tas1r2	inactive: 0.33
GGAAAUAUAUCUCUAUCUCTT against Xylt2	inactive: 1.12

As entered above:
z-score with GCAUUCAUGUGCUCUGCCCTT against Ifitm6 is entered as inactive: -0.0399
z-score with CCUAAGUUCCUGAAAAUAUTT against Epha5 is entered as inactive: -0.915

More results.

Sequence	z-score
CCCAAAGCUCUUGCUACUUTT against Olfr823	inactive: -0.119
CCGAAGCACUUGCUGGUAUTT against Cerk	inactive: -0.281
GGUAAUGUACCUAAUAUUGTT against Cnn1	inactive: 0.386
GUCAGAGCCUCUGUCUUUUTT against Olfr342	inactive: -0.0374
GUAUUAAGACCAAACAGAUTT against Olfr623	inactive: -0.552
GGACCUGAGUUAGGAGAAUTT against Zfp105	inactive: 1.27
CCUUCUCAUCGGUCAUUCUTT against Gm1019	inactive: -0.342
GGAACUGGCCAAGUACUUCTT against Sst	inactive: 0.538
CCUACUGUUGCUAUUACCATT against Oscar	inactive: -1.54
GGUUCUUGUUUUUACCCGCTT against 1700020B09Rik	inactive: 0.591
GGUUUGAAAUGAAACUUCATT against Nedd4l	inactive: -0.866
GGGAUGUAUUUCAACAACUTT against Wwox	inactive: 0.542
GGUGAUAAUAAAAAUGCAGTT against Pzp	inactive: 0.968
GCCUUCGAAGUCGUCCAAGTT against Cdca5	inactive: -1.17
GCUUUACCUGCUCAGAAGCTT against Olfr520	inactive: 0.553
CCUUGAGAAAGCUCCAGUUTT against Cldn9	inactive: 0.296
GGAUGAAAAGCUUCAAUGUTT against Tomm70a	inactive: 0.449
GCUUCAUCUUACCUACUCATT against D930020E02Rik	inactive: -0.115
CGCACUAGGUGAGUUCAUCTT against Dab2ip	inactive: 0.121
GGGUCUUUAAACUGAAAGATT against C230050L11	inactive: -1.27
GGAAGAAAUCAUGAGGAACTT against Xab2	inactive: -0.231
CCAAGUACCCUGAGAGUUUTT against Nte	inactive: 0.701
GGCGAUUUCAACUGAAAAUTT against Gababrbp	inactive: 2.25

Sequence	z-score
GGUGGAUCAUACAAAUUUGTT against Pank2	inactive: 0.087
GGAAGAAGGGCUUUCUUUGTT against BC055367	inactive: 0.576
GUUCUGAAGGGCGACGUAATT against Olfr1217	inactive: 0.701
GUAACUCCUCCAUGAACUCTT against a	inactive: 0.686
GGUGUAUCGCCUAUACCAGTT against 6330407G04Rik	inactive: 0.126
CCAGGUUCUCCGAAUCUCUTT against Cpa1	inactive: 1.05
GGAUAAUGUGAAGUUCAAGTT against Rpl38	inactive: -2.72
GGCAGGUAAUAAAGUUUGUTT against Kcne1l	inactive: 0.498
GGAUGUCAAAUCUGCUGUATT against Olfr973	inactive: -0.702
GGUUUCCAGAAGAAACUCCTT against V1re11	inactive: 0.706
GGAGAUCCGGAAUUUUUAATT against Per2	inactive: -0.334
GGCUUCCUUCAGUGAGAAUTT against 1810065E05Rik	inactive: 0.291
GUGCAACGUGAGCAAUACGTT against Selenbp2	inactive: -1.57
GGUUCCUUUCCUUGAACUUTT against Mtmr3	inactive: 0.0542
GGUGUCAGUCUCUAAACGATT against Hdgfrp2	inactive: -0.819
GCAACGCACCGCUUACUAATT against 5930405J04Rik	inactive: -0.865
GGCACAUCAGAAUGGUUUATT against Txnrd3	inactive: 0.126
GCUCAGAUCUUAUGAUACATT against Zfp35	inactive: -0.776
GGCCAUAGUGCAGUUAGGUTT against Cd24a	inactive: -0.488
GGACCCAAAUCUUUUUAGATT against Wac	inactive: -0.703
CCUGCCUUUUCCUAAUGAATT against Ovca2	inactive: 0.573
